The nature of this test: qHTS Assay for Lipid Storage Modulators in Drosophila S3 Cells.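 On cell number change: cells counted by Cell Tracker Red CMTPX staining in the red channel.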 As to conditions: BODIPY lipid droplet fluorescence, 18-24 h; for cell number change: measured here: cell count max response, cells fed with added oleic acid. The gist of the method:
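Drosophila S3 cells loaded with oleic acid (400 uM, as added) and compounds at several concentrations; lipid droplets imaged by 488-nm laser-scanning cytometry, 500–530 nm intensity and object ratio to cell channel. Percent activity normalized to 20 uM Triacsin C.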

Where [1] appears, read: measured here: cell number channel AC50, cells fed with added oleic acid.
[2] abbreviates: measured here: lipid fluorescence (Fed channel) AC50, cells fed with added oleic acid.

The list shows a part of the results. The main result of the screen is listed elsewhere. These columns were measured beside it and carry no call. Most of these compounds were active or inconclusive in the main read-out, so they are no random draw. Words in brackets tell the shape of the fitted curve; partial curves, single points and poor fits give uncertain potencies.

Consider `O=C(O)C1CC=CCC1C(=O)Nc1ccc(Oc2ccc(Cl)cc2)cc1` (configuration not stated), for which the cell number change was 7.3%. The AC50 under setting [1] was 2.91 µM [rising, partial curve]. Besides, the AC50 under setting [2] is 3.66 µM [rising, single point].
As for `N/C(=N\c1nc(CSc2nnnn2-c2ccccc2)cc(=O)[nH]1)Nc1ccccc1`, the cell number change worked out at 17.1%.
On to `CCCn1c(SCC(=O)NNC(=O)c2ccc(C)cc2)nnc1C(C)C`, for which the cell number change came to 7.69%. The AC50 under setting [2] was 29.1 µM [falling, single point].
As to `Cc1ccccc1N1C(=O)c2cccc3c(N(C)CCO)ccc(c23)C1=O`, the cell number change is -54.5%. For the same compound, under setting [1], the AC50 is 25.9 µM [falling, partial curve, poor fit].
As to `Cc1cccc(OC(=O)Cn2c(C(F)(F)F)nc3ccccc32)c1`, the cell number change was determined as 1.12%. Besides, the AC50 under setting [1] was 0.58 µM [falling, single point].
`COC(=O)c1ccc(N2CCc3ccccc32)c([N+](=O)[O-])c1`: the cell number change was -67%. Besides, the AC50 under setting [1] is 29.1 µM [falling, single point]. For the same compound, the AC50 under setting [2] was 29.1 µM [falling, single point].
`OC(CN1CCC(Cc2ccccc2)CC1)c1ccccc1` (configuration not stated): the AC50 by setting is: under setting [1], 6.51 µM [falling, single point]; under setting [2], 6.51 µM [falling, single point].
For `O=C1C=C(c2ccc(Cl)cc2)C(=O)N1Nc1ccccc1`, the cell number change is -85.3%. In addition, under setting [1], the AC50 is 10.3 µM [falling, partial curve]. Besides, the AC50 under setting [2] is 0.13 µM [falling, full curve, poor fit].
`CCN1CCN(c2nc3c(C)cccn3c(=O)c2C=C(C#N)C#N)CC1`: the cell number change was -40.8%. The AC50 under setting [1] is 29.1 µM [falling, single point]. Also, the AC50 under setting [2] is 29.1 µM [falling, single point].
Turning to `CCN(CC)S(=O)(=O)c1ccc(Cl)c(C(=O)Nc2cc(C)nn2-c2ccccc2C(F)(F)F)c1`, the cell number change was -0.834%. For the same compound, the AC50 under setting [2] was 16.4 µM [falling, single point].
Regarding `Cc1ccc(CN2C(=O)c3ccccc3C2C(=O)NCC2CCCO2)cc1` (configuration not stated), the cell number change came to 27.2%.
Regarding `CCCCn1c(N)c(N(CCOC)C(=O)c2cc3c(s2)CCC3)c(=O)[nH]c1=O`, the cell number change turned out to be 13%.
Consider `CNC(=O)c1[nH]cnc1C(=O)NCC(=O)OCc1ccccc1`, for which the cell number change is 26%.
Consider `COc1cc2c(CCNC(C)=O)c[nH]c2cc1Cl`, for which the cell number change amounted to 33.1%. Under setting [1], the AC50 was 16.4 µM [rising, partial curve, poor fit]. For the same compound, under setting [2], the AC50 is 20.6 µM [rising, partial curve].
As to `Cn1c(=O)c2c(nc(CN3CCc4ccccc4C3)n2Cc2cccc(Cl)c2)n(C)c1=O`, the AC50 is 2.31 µM [rising, partial curve] under setting [1] and 0.116 µM [rising, full curve, poor fit] under setting [2].
Turning to `COc1ccc(OCCNc2c([N+](=O)[O-])c(=O)oc3ccccc23)cc1`, the cell number change turned out to be 29%. Under setting [1], the AC50 was 0.291 µM [rising, full curve, poor fit].
For the compound `CCn1cc(S(=O)(=O)N2CCN(Cc3cccc(Cl)c3)CC2)cn1`, the cell number change is -17.1%. Moreover, the AC50 under setting [2] is 0.794 µM [falling, single point].
`COc1ccc(CCn2c(C)nc3c(c(=O)c4ccccc4n3C)c2=O)cc1`: the cell number change is -19.8%.
Regarding `Cc1ccc(S(=O)(=O)N2CCC(C(=O)NC3CC(C)(C)NC(C)(C)C3)CC2)cc1C`, the cell number change worked out at 32.6%.
`CCOc1cc(C(=O)Nc2cccnc2)cc(OCC)c1OCC`: the cell number change came to 16.6%. In addition, the AC50 under setting [2] was 29.1 µM [falling, single point].
As to `c1ccc(CSc2nnnn2-c2ccc3c(c2)OCCO3)nc1`, the cell number change was 32.8%. The AC50 under setting [1] is 0.411 µM [rising, full curve]. In addition, under setting [2], the AC50 was 29.1 µM [rising, single point].
For `O=C(Nc1ccc2oc(-c3ccccc3F)nc2c1)c1ccccc1F`, the cell number change was -5.17%. The AC50 under setting [2] is 11.6 µM [falling, partial curve, poor fit].
Take `CN(C)C(=S)Nc1ccc(Cc2ccncc2)cc1`: the cell number change is -13.4%. Also, the AC50 under setting [2] is 0.092 µM [falling, full curve].
Consider `O=C(/C=C/c1ccco1)NCc1ccc(F)cc1`, for which the cell number change was -4.6%. Also, under setting [2], the AC50 is 20.6 µM [falling, single point].
With `O=C(C1CCCO1)N(c1ccc(F)cc1)C1C=CS(=O)(=O)C1` (configuration not stated), the cell number change is -10.5%. Further, under setting [1], the AC50 is 3.66 µM [falling, single point]. Besides, the AC50 under setting [2] was 6.51 µM [falling, single point].
In the case of `NC(=S)n1[nH]c(-c2ccc([N+](=O)[O-])cc2)c(N=Nc2ccccc2[N+](=O)[O-])c1=O`, the cell number change was -3.63%.
Regarding `COC(=O)c1ccc(S(N)(=O)=O)o1`, the cell number change was -12.7%. Also, the AC50 under setting [2] is 6.51 µM [falling, single point].
Consider `Cc1cc(S(=O)(=O)N2CCN(Cc3ccccc3)CC2)c(C)s1`, for which the cell number change came to 25.8%. In addition, the AC50 under setting [2] is 18.4 µM [rising, partial curve, poor fit].
For the compound `O=c1[nH]c(N2CCc3ccccc32)nc2c1CCCC2`, the cell number change was -130%. Moreover, the AC50 under setting [1] is 29.1 µM [falling, single point]. Moreover, under setting [2], the concentration at half-maximal activity (AC50) is 29.1 µM [falling, single point].
Consider `NS(=O)(=O)c1ccc(CNC(=O)NC2(c3ccccc3)CC2)cc1`, for which the cell number change was -49.4%. Also, the AC50 under setting [1] was 0.731 µM [falling, full curve]. In addition, the AC50 under setting [2] was 1.16 µM [falling, full curve].
Consider `COC(=O)C1=C(C)OC(N)=C(C#N)C1c1cccnc1` (configuration not stated), for which the cell number change amounted to 50.4%. Moreover, the AC50 under setting [1] was 1.03 µM [rising, partial curve].
`N#Cc1c(NC(=O)c2cc(C3CC3)on2)sc2c1CCC2`: the cell number change was -8.88%.
Consider `CCNc1ccc(C(=O)OCC(=O)NC(=O)NCC(C)C)cc1[N+](=O)[O-]`, for which the cell number change was 2.94%.
As to `CCOC(=O)c1cc2n(c1N)-c1ccccc1C2=O`, under setting [2], the AC50 is 4.11 µM [rising, single point].
For the compound `CC/C(C)=N/Nc1nc2sc3c(c2c(=O)[nH]1)CC(C)(C)OC3`, the cell number change is 37.4%. For the same compound, the AC50 under setting [1] was 16.4 µM [rising, single point]. For the same compound, the AC50 under setting [2] was 6.51 µM [falling, partial curve, poor fit].
On to `COc1ccc(Cl)cc1-n1c(C)cc(C=O)c1C`, for which the cell number change was found to be 52.7%. Further, under setting [1], the AC50 is 23.1 µM [rising, single point]. Under setting [2], the AC50 is 6.51 µM [falling, single point].
On to `O=C(NCC(c1cccnc1)N1CCN(c2ccccc2F)CC1)C1CCCCC1` (configuration not stated), for which the cell number change was -4.45%. Besides, under setting [2], the AC50 was 6.51 µM [falling, single point].
For `CCCc1cc(=O)[nH]c(SCC(=O)N2CCCC2=O)n1`, the cell number change was -29.3%. Further, the AC50 under setting [1] is 0.259 µM [falling, full curve, poor fit].

(Values after PubChem BioAssay AID2685 (National Center for Advancing Translational Sciences (NCATS), 2010).)
